Data set [1] concerns Thermoanaerobacter mathranii A3M4. As to the kind of experiment: Potential fermentation inhibitors during T. mathranii A3M4 fermentation of wet oxidised wheat straw medium. As to conditions: for concentration at T. mathranii, end / Ww-treatment, start: after five days at 70° C., pH 6.8; for change of concentration after xylose fermentation by T. mathranii: thermophilic fermentation step, in words.

For data set [2], the system named is consortium of thermophilic methanogenic Archaea. Description: Thermophilic anaerobic wastewater treatment (methane production) of ethanol fermentation effluent. Conditions: after anaerobic wastewater treatment at 55° C.
Another data set has as its system Saccharomyces cerevisiae. Description: Potential fermentation inhibitors during S. cerevisiae fermentation of wet oxidised wheat straw medium. Conditions: for concentration at S. cerevisiae, end / T. mathranii, start: after five days at 30° C., pH 6.0; for concentration at S. cerevisiae, start: wet oxidised wheat straw medium 60 g/l straw, before yeast fermentation.

The structures appear in SMILES notation.

Take `O=C(O)c1ccc(O)cc1` [4-hydroxybenzoic acid]: in data set [1], the “concentration at T. mathranii, end / Ww-treatment, start” value is 26.0 mg/L and the “change of concentration after xylose fermentation by T. mathranii” value was “increase in the concentration”.

Regarding `CC(=O)O` [Acetic acid], in data set [1], the “concentration at T. mathranii, end / Ww-treatment, start” value was determined as 33.2 mg/L.

As for `COc1cc(C(C)=O)cc(OC)c1O` [Acetosyringone, 4-hydroxy-3,5dimethoxyacetophenone], the “concentration at T. mathranii, end / Ww-treatment, start” value in data set [1] turned out to be 20.0 mg/L.

In the case of `COc1cc(C(C)=O)ccc1O` [Acetovanillione], the “concentration at T. mathranii, end / Ww-treatment, start” value in data set [1] was 4.9 mg/L.

With `COc1cc(C(=O)O)cc(OC)c1O` [Syringic acid], the “concentration at Ww-treatment, end” value in data set [2] is 0.1 mg/L. In data set [1], the “concentration at T. mathranii, end / Ww-treatment, start” value came to 19.0 mg/L and the “change of concentration after xylose fermentation by T. mathranii” value is “reverted to its initial level”. In the data set on Saccharomyces cerevisiae, the “concentration at S. cerevisiae, end / T. mathranii, start” value turned out to be 16.1 mg/L and the “concentration at S. cerevisiae, start” value stood at 20.2 mg/L. Moreover, in the data set with Saccharomyces cerevisiae (mesophilic hexose fermentation step, in words), the “metabolised by S. cerevisiae” value is given as “partly metabolised”.

For the molecule `COc1cccc(OC)c1O` [Syringol], the “concentration at T. mathranii, end / Ww-treatment, start” value in data set [1] is 3.6 mg/L.

`Oc1ccccc1` [phenol]: the “concentration at Ww-treatment, end” value in data set [2] amounted to 0.9 mg/L. For the same molecule, the “concentration at T. mathranii, end / Ww-treatment, start” value in data set [1] was found to be 3.8 mg/L. In the data set on Saccharomyces cerevisiae, the “concentration at S. cerevisiae, end / T. mathranii, start” value came to 3.9 mg/L and the “concentration at S. cerevisiae, start” value came to 4.5 mg/L.

`COc1cc(C=O)cc(OC)c1O` [syringaldehyd]: the “concentration at Ww-treatment, end” value in data set [2] came out at 0.3 mg/L. In data set [1], the “concentration at T. mathranii, end / Ww-treatment, start” value was 2.6 mg/L. For the same molecule, in the data set with Saccharomyces cerevisiae, the “concentration at S. cerevisiae, end / T. mathranii, start” value is 3.2 mg/L and the “concentration at S. cerevisiae, start” value amounted to 3.6 mg/L.

These data come from US20020192774A1, “Method for processing lignocellulosic material” (priority 2000, published 2002).
